Reference: US8106041B2, “Combination product comprising an antagonist or inverse agonist of histamine receptor H3 and an antipsychotic and antidepressant agent, and use thereof for the preparation of a medicament that prevents the adverse effects of psychotropic drugs” (Bioprojet, priority 2003, dated 2012)
For at least one compound, name, drawing or mass did not settle the structure.

System: hyperlocomotion induced by dizocilpine
Test: hyperlocomotion induced by dizocilpine in mice
Assay type: in vivo
Settings: dizocilpine 0.2 mg/kg, BF2649 5 mg/kg intraperitoneally, olanzapine 0.15 mg/kg per os, alone or in combination

SMILES: Cc1cc2c(s1)Nc1ccccc1N=C2N1CCN(C)CC1 [olanzapine]
- effect on the hyperlocomotion induced by dizocilpine: only marginal effects
